Experimental data reported in PubChem BioAssay AID540256 (National Center for Advancing Translational Sciences (NCATS), 2011).
Screen size: about 300,000 compounds; about 3,700 (1.2%) were called active. The inconclusive results got no clear call from the source; some entries with a clear call stand among them for comparison. Calls follow the shape of the full dose curve; tested in HEK293 cells. Potencies of inconclusive entries are doubtful fits and often do not repeat.

Assay: qHTS for Inhibitors of binding or entry into cells for Lassa Virus; also: nearly all actives have a fitted effect of over 50% in size
Conditions: Lassa virus pseudotype entry inhibition, cell reporter; activity change, negative = inhibition: at 37.9 µM (top of the series) unless noted
% is scaled to controls: 0 for no effect and ±100 for the full control effect; potency is read from the fitted curve at half-maximal effect.

Row | Compound | Potency | activity change, negative = inhibition
1 | Cc1ccc(-n2nnnc2SCC(=O)c2cc(C)n(CC3CCCO3)c2C)cc1 (centres undefined) | inconclusive: 20.6 µM [inhibitor, partial curve, poor fit] | 
2 | COc1ccc(CNc2n[nH]c(NCc3ccc(OC)c(OC)c3)n2)cc1OC | inconclusive: 0.562 µM [inhibitor, full curve] | 
3 | Cc1ccc(C(=O)C(c2ccccc2)N2Cc3ccccc3C2=N)cc1 (centres undefined) | inconclusive: 35.5 µM [inhibitor, partial curve, poor fit] | 
4 | Cc1ccc(S(=O)(=O)Nc2ccc(C(=O)OCC(=O)N(CCC#N)c3ccccc3)cc2)cc1C | inconclusive: 2.82 µM [inhibitor, partial curve, poor fit] | 
5 | CCc1nc2ccccc2n1CC(=O)NC1CCS(=O)(=O)C1 (centres undefined) |  | inactive: -11.9%
6 | C=CCOc1ccc(C(=O)n2cc(C(=O)OC)c3ccccc32)cc1 |  | inactive: 23%
7 | Cc1ccc(/C=C/C(=O)Nc2cccc3ncccc23)o1 |  | inactive: 3.01%
8 | CCC(=O)c1ccc(N2CCN(C(=O)COc3ccccc3F)CC2)c(F)c1 |  | inactive: -9.16% [at 46.1 µM]
9 | Cc1ccc(NC(C(=O)c2ccccc2)c2ccccc2)cc1 (centres undefined) | inconclusive: 35.5 µM [inhibitor, single point] | 
10 | CCCN1CCc2c(sc(NC(=O)C3CCN(S(=O)(=O)c4cccs4)CC3)c2C(N)=O)C1 | inconclusive: 35.5 µM [inhibitor, single point] | 
11 | COc1ccc(C2CC(c3c(-c4ccccc4)c4cc(Cl)ccc4[nH]c3=O)=NN2S(C)(=O)=O)cc1 (centres undefined) | inconclusive: 35.5 µM [inhibitor, single point] | 
12 | N/C(=N\OC(=O)c1ccc2c(c1)OCO2)c1cccnc1 | inconclusive: 35.5 µM [inhibitor, single point] | 
13 | Cc1ccc(C)c(Cn2c(=O)n(-c3ccc(Cl)cc3)c(=O)c3c(C)c(C)sc32)c1 | inconclusive: 2.51 µM [activator, partial curve, poor fit] | 
14 | O=C(Oc1cccc(Nc2ncnc3ccccc23)c1)c1ccccc1Cl |  | inactive: -12.9%
15 | COc1ccc(C(=O)Nc2cnc(NC(=O)c3cccs3)cc2C)cc1 | inconclusive: 10 µM [inhibitor, single point] | 
16 | O=c1[nH]oc2c1CCNC2 |  | inactive: -19.2%
17 | Cc1sc2nc(C3CC3)nc(SCC(=O)N3c4ccccc4CC3C)c2c1C (centres undefined) | active: 1.83 µM | 
18 | O=C(C1CCN(S(=O)(=O)c2cccc3nsnc23)CC1)N1CCCc2ccccc21 | inconclusive: 28.2 µM [inhibitor, single point] | 
19 | c1ccc(CNC2CCCCCCC2)cc1 (tested in a mixture with another compound) |  | inconclusive: 25.3% [activator] [at 46.1 µM]

2 entries drawn at random from those above:
Row | Compound | Potency | activity change, negative = inhibition
15 | COc1ccc(C(=O)Nc2cnc(NC(=O)c3cccs3)cc2C)cc1 | inconclusive: 10 µM [inhibitor, single point] | 
18 | O=C(C1CCN(S(=O)(=O)c2cccc3nsnc23)CC1)N1CCCc2ccccc21 | inconclusive: 28.2 µM [inhibitor, single point] | 
